Paper PMC9918485
Results are given in words; binding and its absence hold for the method and conditions named. In cells and extracts the contact can be indirect. Some results given as binding are weak or reduced against the parent protein; the word gives no strength.

Amino acid sequences for entries named in this document (tags omitted).
UniProt Q62406: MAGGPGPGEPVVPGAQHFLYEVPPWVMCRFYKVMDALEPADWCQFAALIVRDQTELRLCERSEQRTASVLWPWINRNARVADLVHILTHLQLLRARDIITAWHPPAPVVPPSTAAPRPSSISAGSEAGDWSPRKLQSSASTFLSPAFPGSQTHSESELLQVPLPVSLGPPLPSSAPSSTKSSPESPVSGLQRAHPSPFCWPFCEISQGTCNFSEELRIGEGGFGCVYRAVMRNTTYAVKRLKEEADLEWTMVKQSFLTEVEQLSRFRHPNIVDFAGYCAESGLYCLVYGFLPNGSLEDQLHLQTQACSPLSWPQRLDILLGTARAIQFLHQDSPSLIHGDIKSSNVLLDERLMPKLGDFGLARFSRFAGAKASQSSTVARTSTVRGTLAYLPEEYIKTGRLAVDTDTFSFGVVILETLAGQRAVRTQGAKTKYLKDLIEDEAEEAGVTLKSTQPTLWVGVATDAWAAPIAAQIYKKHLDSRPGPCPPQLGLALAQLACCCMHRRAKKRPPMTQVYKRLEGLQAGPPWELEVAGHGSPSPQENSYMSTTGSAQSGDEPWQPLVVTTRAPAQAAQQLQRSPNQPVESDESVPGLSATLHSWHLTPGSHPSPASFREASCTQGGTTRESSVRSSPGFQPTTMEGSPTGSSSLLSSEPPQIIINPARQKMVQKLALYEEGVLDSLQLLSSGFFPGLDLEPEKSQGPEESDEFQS

Target: interleukin-1 receptor-associated kinase 1 (IRAK1) (mouse (endogenous in C57BL/6 spinal cord)) (UniProt Q62406)
Experiment: co-IP; lumbosacral spinal cord lysates (RIPA buffer) of EAE mice at peak disease (WT, IRAK-M-/-, AAV-CTL); anti-IRAK1 overnight at 4 °C, protein A/G beads 3 h, washed three times with RIPA buffer; western blot for IRAK1 and TRAF6

binding: binds
B1: TNF receptor-associated factor 6 (TRAF6) (protein, UniProt P70196 1-530)
chain: MSLLNCENSCGSSQSSSDCCAAMAASCSAAVKDDSVSGSASTGNLSSSFMEEIQGYDVEFDPPLESKYECPICLMALREAVQTPCGHRFCKACIIKSIRDAGHKCPVDNEILLENQLFPDNFAKREILSLTVKCPNKGCLQKMELRHLEDHQVHCEFALVNCPQCQRPFQKCQVNTHIIEDCPRRQVSCVNCAVSMAYEEKEIHDQSCPLANIICEYCGTILIREQMPNHYDLDCPTAPIPCTFSVFGCHEKMQRNHLARHLQENTQLHMRLLAQAVHNVNLALRPCDAASPSRGCRPEDPNYEETIKQLESRLVRQDHQIRELTAKMETQSMYVGELKRTIRTLEDKVAEMEAQQCNGIYIWKIGNFGMHLKSQEEERPVVIHSPGFYTGRPGYKLCMRLHLQLPTAQRCANYISLFVHTMQGEYDSHLPWPFQGTIRLTILDQSEALIRQNHEEVMDAKPELLAFQRPTIPRNPKGFGYVTFMHLEALRQGTFIKDDTLLVRCEVSTRFDMGGLRKEGFQPRSTDAGV
